# These are yes or no findings as the source states them, for the method shown. In cells and extracts the contact can be indirect. Some binding calls cover weakened binding; strength is not graded here.
# Chains of the proteins cited; added tags and fusions are not shown.
# UniProt P22736: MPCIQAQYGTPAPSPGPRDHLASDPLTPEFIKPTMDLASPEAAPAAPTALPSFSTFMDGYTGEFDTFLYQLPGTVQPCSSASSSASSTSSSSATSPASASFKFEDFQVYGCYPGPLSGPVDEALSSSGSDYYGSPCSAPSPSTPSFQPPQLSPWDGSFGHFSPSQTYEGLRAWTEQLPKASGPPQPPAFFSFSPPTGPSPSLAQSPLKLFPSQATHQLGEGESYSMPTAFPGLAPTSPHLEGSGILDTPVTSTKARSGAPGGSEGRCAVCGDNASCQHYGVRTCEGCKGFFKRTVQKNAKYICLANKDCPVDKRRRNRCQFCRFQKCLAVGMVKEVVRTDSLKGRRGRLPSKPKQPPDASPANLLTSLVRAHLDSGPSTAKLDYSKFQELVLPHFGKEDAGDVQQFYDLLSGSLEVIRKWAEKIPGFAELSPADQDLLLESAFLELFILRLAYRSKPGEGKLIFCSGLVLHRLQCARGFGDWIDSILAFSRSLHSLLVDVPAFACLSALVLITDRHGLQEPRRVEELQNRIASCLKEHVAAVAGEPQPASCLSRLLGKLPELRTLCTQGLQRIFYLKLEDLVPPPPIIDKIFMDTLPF
# UniProt P12813: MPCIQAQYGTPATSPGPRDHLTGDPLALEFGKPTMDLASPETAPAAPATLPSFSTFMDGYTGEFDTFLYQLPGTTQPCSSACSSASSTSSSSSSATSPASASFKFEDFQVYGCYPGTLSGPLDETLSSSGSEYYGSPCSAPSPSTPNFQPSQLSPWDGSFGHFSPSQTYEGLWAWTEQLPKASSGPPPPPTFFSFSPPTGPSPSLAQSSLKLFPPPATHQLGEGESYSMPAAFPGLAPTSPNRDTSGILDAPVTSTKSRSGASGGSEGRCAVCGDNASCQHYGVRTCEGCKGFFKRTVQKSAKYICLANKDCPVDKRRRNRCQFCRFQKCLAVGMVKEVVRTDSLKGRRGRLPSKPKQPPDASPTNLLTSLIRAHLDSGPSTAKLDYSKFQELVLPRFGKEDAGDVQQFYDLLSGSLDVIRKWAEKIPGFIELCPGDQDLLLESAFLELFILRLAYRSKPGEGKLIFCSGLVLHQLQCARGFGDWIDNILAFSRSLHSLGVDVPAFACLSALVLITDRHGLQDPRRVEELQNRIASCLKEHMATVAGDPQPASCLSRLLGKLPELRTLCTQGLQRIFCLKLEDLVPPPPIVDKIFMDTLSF
# UniProt Q9UKL0: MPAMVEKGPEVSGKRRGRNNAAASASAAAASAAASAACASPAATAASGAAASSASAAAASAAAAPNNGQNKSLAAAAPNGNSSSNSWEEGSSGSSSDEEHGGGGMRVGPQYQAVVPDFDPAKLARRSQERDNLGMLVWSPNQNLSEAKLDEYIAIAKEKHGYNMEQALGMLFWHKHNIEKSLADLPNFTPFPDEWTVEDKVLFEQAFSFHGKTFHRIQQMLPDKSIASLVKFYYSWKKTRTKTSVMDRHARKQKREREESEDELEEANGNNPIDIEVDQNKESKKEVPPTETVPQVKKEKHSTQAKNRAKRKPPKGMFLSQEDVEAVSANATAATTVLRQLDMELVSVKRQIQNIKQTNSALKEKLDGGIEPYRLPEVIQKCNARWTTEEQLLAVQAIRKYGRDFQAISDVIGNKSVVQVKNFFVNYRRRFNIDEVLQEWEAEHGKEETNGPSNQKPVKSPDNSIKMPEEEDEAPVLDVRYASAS
# Experiments:
# [1] = biological target: Nr4a1 (endogenous in human CD8+ T cells) (human (endogenous in CD8+ T cells from blood)) (UniProt P22736); test: co-IP; human CD8+ T cells isolated from blood, stimulated with anti-CD3/anti-CD28 dynabeads for 1 or 2 hrs; IP with anti-Nr4a1 antibody, western blot with anti-CoREST antibody
# [2] = biological target: Nr4a1 (transfected into 293T cells) (UniProt P12813); test: co-IP; 293T cells transfected with the Runx3 distal promoter region and a control vector or Nr4a1; collected 24 and 48 hrs after transfection; IP with anti-Nr4a1 antibody, western blot with anti-CoREST antibody
binding [1],binding [2],Substance
binds,,CoREST (endogenous in human CD8+ T cells) (from UniProt Q9UKL0 1-485)
,binds,CoREST (endogenous in 293T cells) (from UniProt Q9UKL0 1-485)

# From paper PMC4356985
